Source: publication PMC6769459, “Inhibition of Tyrosine-Phosphorylated STAT3 in Human Breast and Lung Cancer Cells by Manuka Honey is Mediated by Selective Antagonism of the IL-6 Receptor” (International Journal of Molecular Sciences, 2019)
These are yes or no findings as the source states them, for the method shown. Some entries that bind do so weakly or less than the wild type.

Biological target: T1, IL-11 receptor α chain (IL-11Rα), recombinant (UniProt Q14626)
T1 sequence: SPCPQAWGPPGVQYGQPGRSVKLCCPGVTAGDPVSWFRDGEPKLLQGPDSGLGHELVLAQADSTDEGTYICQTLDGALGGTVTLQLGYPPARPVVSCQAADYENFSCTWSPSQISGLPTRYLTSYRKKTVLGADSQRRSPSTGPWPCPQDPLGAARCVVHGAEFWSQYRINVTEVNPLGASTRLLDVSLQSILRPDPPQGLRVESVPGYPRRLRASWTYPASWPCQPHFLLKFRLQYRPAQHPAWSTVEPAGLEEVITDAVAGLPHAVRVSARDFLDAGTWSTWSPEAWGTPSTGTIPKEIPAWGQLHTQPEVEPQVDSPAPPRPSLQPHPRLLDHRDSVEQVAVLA
Assay: ELISA; receptor coated on 96-well plates overnight at 4 °C (IL-6Rα 2 μg/mL, IL-8R 0.5 μg/mL, IL-11Rα 1 μg/mL), blocked with 1% BSA in PBS; pre-incubated 1 h at room temperature with Manuka honey (0.03–3%), sugar control or flavonoids (0.5–50 μM), washed; cytokine 50 ng/mL added for 1 h at 37 °C; detected with biotin-conjugated mAb to the cytokine and HRP-streptavidin; both purified

B1: IL-11, recombinant (ligand, UniProt P20809 22-199)
chain: PGPPPGPPRVSPDPRAELDSTVLLTRSLLADTRQLAAQLRDKFPADGDHNLDSLPTLAMSAGALGALQLPGVLTRLRADLLSYLRHVQWLRRAGGSSLKTLEPELGTLQARLDRLLRRLQLLMSRLALPQPPPDPPAPPLAPPSSAWGGIRAAHAILGGLHLTLDWAVRGLLLLKTRL
binding: binds
